# Measured values published in patent US20110118274A1, “PROTEASOME INHIBITORS AND THEIR USE IN TREATING PATHOGEN INFECTION AND CANCER” (CORNELL RESEARCH FOUNDATION, INC., priority 2007, published 2011).
# Amino acid sequences for entries named in this document (tags omitted). A change or cut given only in a name is not applied to a line headed by its entry.
# UniProt P28074: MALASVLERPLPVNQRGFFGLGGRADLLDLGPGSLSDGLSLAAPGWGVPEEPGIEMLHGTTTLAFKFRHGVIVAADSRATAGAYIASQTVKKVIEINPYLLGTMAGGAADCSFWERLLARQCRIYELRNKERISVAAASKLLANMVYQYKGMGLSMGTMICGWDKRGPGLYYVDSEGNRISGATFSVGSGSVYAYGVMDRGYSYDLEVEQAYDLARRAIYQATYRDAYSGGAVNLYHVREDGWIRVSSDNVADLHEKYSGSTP
# At least one structure is not confirmed: it was looked up by name or label, or the drawing left a doubt.
# Target: human 20S-β5 (Hu20S PA28) (Homo sapiens, UniProt P28074)
# Assay: Kinetics of inhibition of human 20S proteasome β5 site in presence of PA28
# Assay type: biochemical
# Settings: Table 1
smiles,measurement,value
COc1cc(OC)cc(-c2nsc(=O)o2)c1 [HT1147],kobs/[I] Hu20S PA28,0.0 M⁻¹ s⁻¹
